Reference: the supplement of paper PMC10849652
This is one part of the list.

Chains of the proteins cited; added tags and fusions are not shown. Lines headed by an entry give the natural chain unless they say otherwise; changes in a name come on top.
UniProt Q5TF39: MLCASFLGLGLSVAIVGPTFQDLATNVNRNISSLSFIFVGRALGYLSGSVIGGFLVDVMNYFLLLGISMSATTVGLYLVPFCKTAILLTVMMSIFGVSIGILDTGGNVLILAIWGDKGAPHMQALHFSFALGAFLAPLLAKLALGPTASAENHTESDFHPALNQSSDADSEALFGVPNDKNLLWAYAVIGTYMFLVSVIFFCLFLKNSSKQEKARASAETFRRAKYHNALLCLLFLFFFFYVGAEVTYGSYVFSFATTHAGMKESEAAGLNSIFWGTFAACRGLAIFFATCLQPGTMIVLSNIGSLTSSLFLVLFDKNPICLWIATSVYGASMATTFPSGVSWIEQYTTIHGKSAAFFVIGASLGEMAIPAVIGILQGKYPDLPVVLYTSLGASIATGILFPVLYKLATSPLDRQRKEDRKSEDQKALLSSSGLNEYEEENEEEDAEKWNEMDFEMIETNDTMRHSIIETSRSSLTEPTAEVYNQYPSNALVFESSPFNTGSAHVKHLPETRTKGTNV
UniProt Q96HR3: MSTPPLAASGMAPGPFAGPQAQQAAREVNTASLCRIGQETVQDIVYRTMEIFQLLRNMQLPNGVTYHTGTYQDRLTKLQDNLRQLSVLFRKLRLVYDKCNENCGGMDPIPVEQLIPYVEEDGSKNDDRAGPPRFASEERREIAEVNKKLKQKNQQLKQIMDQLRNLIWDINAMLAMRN
UniProt Q7L2J0: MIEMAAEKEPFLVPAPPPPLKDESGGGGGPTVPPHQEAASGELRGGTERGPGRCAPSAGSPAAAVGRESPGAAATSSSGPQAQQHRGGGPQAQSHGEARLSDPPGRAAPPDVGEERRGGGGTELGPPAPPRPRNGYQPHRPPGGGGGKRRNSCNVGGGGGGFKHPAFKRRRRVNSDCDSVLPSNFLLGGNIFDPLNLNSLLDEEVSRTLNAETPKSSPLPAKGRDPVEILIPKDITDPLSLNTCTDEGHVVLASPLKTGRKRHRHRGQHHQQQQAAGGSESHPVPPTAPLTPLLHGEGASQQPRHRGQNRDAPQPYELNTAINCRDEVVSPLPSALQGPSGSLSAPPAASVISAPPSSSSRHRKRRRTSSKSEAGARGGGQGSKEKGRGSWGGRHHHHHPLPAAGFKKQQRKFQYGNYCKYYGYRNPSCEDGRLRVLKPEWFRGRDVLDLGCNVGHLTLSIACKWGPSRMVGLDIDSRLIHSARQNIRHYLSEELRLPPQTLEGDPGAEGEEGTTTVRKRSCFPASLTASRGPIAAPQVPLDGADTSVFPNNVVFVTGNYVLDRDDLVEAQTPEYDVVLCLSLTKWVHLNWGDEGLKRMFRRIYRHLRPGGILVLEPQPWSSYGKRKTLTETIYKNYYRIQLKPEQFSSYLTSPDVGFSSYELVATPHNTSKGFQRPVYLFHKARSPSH
UniProt P51608, whole entry, looked up: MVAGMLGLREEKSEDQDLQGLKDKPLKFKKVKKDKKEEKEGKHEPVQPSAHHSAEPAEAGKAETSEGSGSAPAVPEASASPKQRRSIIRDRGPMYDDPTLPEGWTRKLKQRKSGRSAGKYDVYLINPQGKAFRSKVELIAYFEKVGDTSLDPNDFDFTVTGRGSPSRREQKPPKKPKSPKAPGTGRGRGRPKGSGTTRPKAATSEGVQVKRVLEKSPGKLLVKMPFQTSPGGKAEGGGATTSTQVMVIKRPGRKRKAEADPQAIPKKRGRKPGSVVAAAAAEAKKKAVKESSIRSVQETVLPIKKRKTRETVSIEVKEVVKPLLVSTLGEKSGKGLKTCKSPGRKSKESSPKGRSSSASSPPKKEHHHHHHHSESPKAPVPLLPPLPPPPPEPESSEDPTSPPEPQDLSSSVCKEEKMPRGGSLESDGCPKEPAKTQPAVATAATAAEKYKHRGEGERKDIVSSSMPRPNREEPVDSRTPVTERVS
UniProt Q9GZY8: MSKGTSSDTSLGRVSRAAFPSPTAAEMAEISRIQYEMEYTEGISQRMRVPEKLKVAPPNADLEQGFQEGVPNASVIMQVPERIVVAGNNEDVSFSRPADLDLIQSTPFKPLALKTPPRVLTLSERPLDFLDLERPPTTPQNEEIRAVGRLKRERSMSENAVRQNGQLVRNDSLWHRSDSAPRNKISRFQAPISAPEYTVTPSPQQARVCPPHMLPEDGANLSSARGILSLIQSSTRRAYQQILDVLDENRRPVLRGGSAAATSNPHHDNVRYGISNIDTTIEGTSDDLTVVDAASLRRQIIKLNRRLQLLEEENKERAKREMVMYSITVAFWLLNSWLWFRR
UniProt Q9UHV7: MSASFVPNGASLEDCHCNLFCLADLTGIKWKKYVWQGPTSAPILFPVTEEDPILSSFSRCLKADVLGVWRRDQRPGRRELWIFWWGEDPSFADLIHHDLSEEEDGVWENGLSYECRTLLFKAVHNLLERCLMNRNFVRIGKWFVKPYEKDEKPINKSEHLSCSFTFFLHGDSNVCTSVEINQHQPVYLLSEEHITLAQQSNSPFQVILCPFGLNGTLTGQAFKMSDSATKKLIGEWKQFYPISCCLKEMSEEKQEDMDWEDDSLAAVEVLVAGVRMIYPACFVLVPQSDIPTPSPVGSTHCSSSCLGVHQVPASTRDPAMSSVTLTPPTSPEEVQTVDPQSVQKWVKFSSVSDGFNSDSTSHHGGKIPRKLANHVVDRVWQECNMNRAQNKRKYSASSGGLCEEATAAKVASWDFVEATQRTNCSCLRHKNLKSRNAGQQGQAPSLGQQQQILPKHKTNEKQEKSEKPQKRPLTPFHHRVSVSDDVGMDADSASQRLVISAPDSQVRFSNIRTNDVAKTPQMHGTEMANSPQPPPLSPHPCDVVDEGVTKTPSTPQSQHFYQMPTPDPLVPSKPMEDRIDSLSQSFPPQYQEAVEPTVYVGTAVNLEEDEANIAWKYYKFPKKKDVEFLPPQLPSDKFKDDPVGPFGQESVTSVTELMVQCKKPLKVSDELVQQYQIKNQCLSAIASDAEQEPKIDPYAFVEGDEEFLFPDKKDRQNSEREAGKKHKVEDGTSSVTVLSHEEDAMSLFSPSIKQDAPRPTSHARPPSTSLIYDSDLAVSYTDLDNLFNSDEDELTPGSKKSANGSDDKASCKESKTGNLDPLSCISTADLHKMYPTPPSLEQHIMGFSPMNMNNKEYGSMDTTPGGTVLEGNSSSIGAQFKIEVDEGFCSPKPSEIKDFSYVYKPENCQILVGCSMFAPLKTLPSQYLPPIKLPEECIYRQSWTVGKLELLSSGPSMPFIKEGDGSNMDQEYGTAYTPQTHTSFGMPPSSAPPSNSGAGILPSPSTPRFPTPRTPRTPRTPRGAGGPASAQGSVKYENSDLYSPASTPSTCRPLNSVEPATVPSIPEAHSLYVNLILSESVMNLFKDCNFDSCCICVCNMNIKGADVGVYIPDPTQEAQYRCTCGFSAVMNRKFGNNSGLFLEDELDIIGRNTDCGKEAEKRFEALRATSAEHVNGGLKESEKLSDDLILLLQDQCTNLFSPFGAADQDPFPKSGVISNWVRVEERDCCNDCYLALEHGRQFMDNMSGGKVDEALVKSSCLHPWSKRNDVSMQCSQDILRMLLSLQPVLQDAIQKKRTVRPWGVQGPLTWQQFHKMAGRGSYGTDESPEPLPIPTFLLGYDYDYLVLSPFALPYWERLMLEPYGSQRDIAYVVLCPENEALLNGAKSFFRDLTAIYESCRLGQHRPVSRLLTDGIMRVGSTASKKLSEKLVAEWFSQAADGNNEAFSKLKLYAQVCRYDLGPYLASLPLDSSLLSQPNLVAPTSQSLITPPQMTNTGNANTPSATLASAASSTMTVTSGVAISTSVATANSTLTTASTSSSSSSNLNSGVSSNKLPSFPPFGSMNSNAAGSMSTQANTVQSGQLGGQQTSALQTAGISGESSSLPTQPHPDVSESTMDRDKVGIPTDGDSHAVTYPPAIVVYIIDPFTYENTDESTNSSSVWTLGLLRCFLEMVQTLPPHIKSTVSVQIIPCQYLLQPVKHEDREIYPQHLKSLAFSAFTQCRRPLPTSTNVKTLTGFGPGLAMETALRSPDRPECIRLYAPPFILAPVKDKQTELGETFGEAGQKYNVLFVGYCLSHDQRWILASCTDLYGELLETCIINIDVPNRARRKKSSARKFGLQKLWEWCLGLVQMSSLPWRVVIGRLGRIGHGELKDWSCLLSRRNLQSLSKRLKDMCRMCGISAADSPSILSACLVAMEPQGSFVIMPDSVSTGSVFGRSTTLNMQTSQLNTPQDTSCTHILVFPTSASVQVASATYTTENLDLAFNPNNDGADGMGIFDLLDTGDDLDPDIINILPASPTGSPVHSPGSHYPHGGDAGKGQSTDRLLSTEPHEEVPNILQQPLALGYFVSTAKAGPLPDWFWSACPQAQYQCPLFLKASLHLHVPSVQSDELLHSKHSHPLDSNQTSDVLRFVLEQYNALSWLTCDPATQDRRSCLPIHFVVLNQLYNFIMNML
UniProt O75448: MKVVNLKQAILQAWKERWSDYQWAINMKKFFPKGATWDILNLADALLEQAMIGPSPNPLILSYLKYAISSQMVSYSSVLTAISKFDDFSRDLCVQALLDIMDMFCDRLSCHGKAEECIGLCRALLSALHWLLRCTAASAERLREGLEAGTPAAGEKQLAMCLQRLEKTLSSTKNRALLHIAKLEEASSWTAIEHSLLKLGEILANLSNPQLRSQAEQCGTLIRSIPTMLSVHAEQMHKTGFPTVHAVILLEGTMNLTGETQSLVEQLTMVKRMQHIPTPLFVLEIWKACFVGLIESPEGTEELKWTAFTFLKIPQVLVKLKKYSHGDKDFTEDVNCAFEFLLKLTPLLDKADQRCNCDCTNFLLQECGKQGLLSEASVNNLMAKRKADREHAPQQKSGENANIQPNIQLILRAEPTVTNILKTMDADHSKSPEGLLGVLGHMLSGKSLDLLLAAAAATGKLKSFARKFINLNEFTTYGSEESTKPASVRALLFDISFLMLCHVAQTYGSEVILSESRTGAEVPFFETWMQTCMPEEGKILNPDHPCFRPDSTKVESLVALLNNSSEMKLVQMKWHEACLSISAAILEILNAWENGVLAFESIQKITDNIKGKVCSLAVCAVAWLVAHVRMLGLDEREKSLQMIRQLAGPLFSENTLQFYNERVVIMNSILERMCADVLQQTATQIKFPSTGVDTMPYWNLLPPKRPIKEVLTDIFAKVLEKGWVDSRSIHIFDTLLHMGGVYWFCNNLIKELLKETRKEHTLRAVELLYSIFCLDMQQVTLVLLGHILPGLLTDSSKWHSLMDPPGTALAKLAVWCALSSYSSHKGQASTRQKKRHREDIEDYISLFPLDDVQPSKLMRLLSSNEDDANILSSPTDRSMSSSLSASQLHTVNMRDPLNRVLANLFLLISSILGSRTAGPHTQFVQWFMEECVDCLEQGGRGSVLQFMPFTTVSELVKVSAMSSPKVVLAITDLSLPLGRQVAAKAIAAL
UniProt Q8WXB1: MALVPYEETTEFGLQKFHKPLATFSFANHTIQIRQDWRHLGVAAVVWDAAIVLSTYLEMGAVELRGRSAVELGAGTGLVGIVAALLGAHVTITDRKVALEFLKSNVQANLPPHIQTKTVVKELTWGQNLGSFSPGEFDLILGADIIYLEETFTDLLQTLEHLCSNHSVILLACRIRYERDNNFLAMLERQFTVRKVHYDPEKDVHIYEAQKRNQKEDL
UniProt P33991: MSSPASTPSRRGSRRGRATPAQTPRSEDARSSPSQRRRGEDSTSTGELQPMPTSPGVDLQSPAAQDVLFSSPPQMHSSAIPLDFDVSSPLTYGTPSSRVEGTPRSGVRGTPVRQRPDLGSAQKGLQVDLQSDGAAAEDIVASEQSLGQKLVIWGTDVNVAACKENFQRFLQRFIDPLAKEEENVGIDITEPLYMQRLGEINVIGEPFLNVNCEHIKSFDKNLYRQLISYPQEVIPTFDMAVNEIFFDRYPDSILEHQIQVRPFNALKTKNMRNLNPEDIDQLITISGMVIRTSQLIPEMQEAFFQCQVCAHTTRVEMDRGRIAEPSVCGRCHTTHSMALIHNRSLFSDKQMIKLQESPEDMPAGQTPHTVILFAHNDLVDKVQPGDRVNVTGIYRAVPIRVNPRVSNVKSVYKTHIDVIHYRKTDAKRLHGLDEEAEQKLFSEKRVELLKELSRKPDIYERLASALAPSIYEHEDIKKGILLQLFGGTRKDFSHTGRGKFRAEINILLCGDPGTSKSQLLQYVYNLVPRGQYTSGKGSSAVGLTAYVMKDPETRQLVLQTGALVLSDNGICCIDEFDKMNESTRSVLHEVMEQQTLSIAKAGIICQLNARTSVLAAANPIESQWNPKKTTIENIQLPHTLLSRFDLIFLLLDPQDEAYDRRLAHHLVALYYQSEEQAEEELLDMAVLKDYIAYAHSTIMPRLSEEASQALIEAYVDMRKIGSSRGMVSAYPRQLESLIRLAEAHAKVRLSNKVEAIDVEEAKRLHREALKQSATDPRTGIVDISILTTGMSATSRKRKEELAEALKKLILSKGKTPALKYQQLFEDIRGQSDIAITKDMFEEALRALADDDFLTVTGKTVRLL

How the values were obtained:
Assay in all cases: log2 fold change, soluble protein after heating vs DMSO (PISA); higher = thermal stabilisation; K562 lysate, 10 uM; active = over 0.2 and 3.5 SD of the protein, either way, in both replicates (recomputed)
ibrutinib = compound: C=CC(=O)N1CCC[C@@H](n2nc(-c3ccc(Oc4ccccc4)cc3)c3c(N)ncnc32)C1 [ibrutinib]
How it was run: (§1)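 Thermal stability, expressed as log-two fold change relative to solvent controls, is given from duplicates. Crude K562 extract in PBS pH 7.4 with 1 mM MgCl2, at 1 mg/mL protein, was treated with 10 μM compound for 30 min and heated in aliquots for 3 min across 48°C-58°C. After pooling, adjustment to 0.5% NP-40 at 4°C and centrifugation at 21,000xg for 90 min, supernatant protein was measured by TMTpro 16plex LC-MS/MS with channel sums equalised.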

[1] = compound: CC(=O)c1cnc2ccc(-c3cc(Cl)c(O)c(Cl)c3)nc2c1N[C@H]1CC[C@H](CN(C)C)CC1
How it was run: as §1

ralimetinib = compound: CC(C)(C)Cn1c(N)nc2ccc(-c3[nH]c(C(C)(C)C)nc3-c3ccc(F)cc3)nc21 [ralimetinib]
How it was run: as §1

[2] = compound: CC(C)(O)CC(=O)NCCn1ccc2ncnc(Nc3ccc(Oc4cccc(C(F)(F)F)c4)c(Cl)c3)c21
How it was run: as §1

[3] = compound: CC(C)C1=C2N=C(C=C(N2N=C1)NCC3=CC=CC=C3)NCCCCCCN
How it was run: as §1

[4] = compound: CC1=C(C(CC(=O)N1)C2=CC=C(C=C2)C(F)(F)F)C(=O)NC3=C(C=C4C(=C3)C=NN4)F
How it was run: as §1

[5] = compound: CC1=C(C2=C(C=C1)C(=O)C3=CC=CC=C3N2CCCN)C
How it was run: as §1

[6] = compound: CC1=C(C=C(C=C1)NC(=O)C2=CC(=CC=C2)C(C)(C)C#N)NC3=CC4=C(C=C3)N=CN(C4=O)C
How it was run: as §1

[7] = compound: CC1=C(C=C(C=C1)NC(=O)C2=CC(=CC=C2)N(C)C)NC(=O)C3=CC=C(C=C3)O
How it was run: as §1

[8] = compound: CC1=CC=C(C=C1)SC2=C3C=C(SC3=CN=C2)C(=O)N
How it was run: as §1

Measured: log2 fold change

MBOAT2 (UniProt Q6ZWT7)
inactive: ibrutinib -0.092 | [1] -0.039 | ralimetinib 0.137 | [2] 0.047 | [3] -0.047 | [4] 0.034 | [5] 0.031 | [6] 0.008 | [7] -0.117 | [8] 0.096

MFSD4B (UniProt Q5TF39)
inactive: ibrutinib -0.114 | [1] 0.018 | ralimetinib 0.009 | [2] -0.238 | [3] 0.073 | [4] -0.102 | [5] -0.114 | [6] 0.048 | [7] 0.105 | [8] 0.03

MEA1 (UniProt Q16626)
inactive: ibrutinib -0.034 | [1] -0.026 | ralimetinib 0.025 | [2] -0.009 | [3] -0.014 | [4] 0.059 | [5] 0.045 | [6] 0.051 | [7] -0.002 | [8] 0.078

MEAF6 isoform 3 (UniProt Q9HAF1)
inactive: ibrutinib 0.02 | [1] -0.009 | ralimetinib -0.128 | [2] 0.002 | [3] 0.032 | [4] 0.081 | [5] -0.001 | [6] 0.136 | [7] 0.045 | [8] -0.011

MED21 (UniProt Q13503)
inactive: ibrutinib -0.105 | [1] 0.346 | ralimetinib 0.032 | [2] 0.058 | [3] -0.144 | [4] -0.059 | [5] -0.18 | [6] 0.022 | [7] 0 | [8] 0.056

MED30 (UniProt Q96HR3)
inactive: ibrutinib 0.095 | [1] 0.003 | ralimetinib 0.034 | [2] -0.073 | [3] -0.002 | [4] 0 | [5] -0.021 | [6] -0.015 | [7] 0.003 | [8] -0.006

MCAT (UniProt Q8IVS2)
inactive: ibrutinib 0.004 | [1] 0.005 | ralimetinib 0.028 | [2] -0.013 | [3] 0.013 | [4] 0.012 | [5] -0.006 | [6] 0.015 | [7] -0.007 | [8] -0.014

MDN1 (UniProt Q9NU22)
inactive: ibrutinib -0.024 | [1] -0.04 | ralimetinib 0.026 | [2] -0.062 | [3] -0.012 | [4] -0.026 | [5] -0.05 | [6] 0.001 | [7] 0.071 | [8] -0.031

METTL3 (UniProt Q86U44)
inactive: ibrutinib 0.027 | [1] -0.015 | ralimetinib 0.022 | [2] -0.017 | [3] -0.01 | [4] -0.002 | [5] -0.021 | [6] 0.001 | [7] -0.032 | [8] -0.012

MED8 isoform 2 (UniProt Q96G25)
inactive: ibrutinib 0.109 | [1] 0.024 | ralimetinib 0.012 | [2] 0.036 | [3] 0.006 | [4] -0.03 | [5] -0.001 | [6] -0.005 | [7] -0.05 | [8] -0.058

MED17 (UniProt Q9NVC6)
inactive: ibrutinib 0.018 | [1] 0.003 | ralimetinib 0 | [2] -0.003 | [3] -0.017 | [4] 0.04 | [5] 0.019 | [6] 0 | [7] 0.021 | [8] 0.001

MEPCE (UniProt Q7L2J0)
inactive: ibrutinib 0.001 | [1] -0.013 | ralimetinib 0 | [2] 0.03 | [3] 0.02 | [4] 0.013 | [5] 0.015 | [6] -0.024 | [7] 0.021 | [8] 0.012

MCCC1 (UniProt Q96RQ3)
inactive: ibrutinib 0.034 | [1] -0.033 | ralimetinib 0.022 | [2] -0.042 | [3] -0.014 | [4] -0.028 | [5] 0.026 | [6] -0.006 | [7] -0.004 | [8] 0.013

MECP2 isoform 2 (UniProt P51608)
inactive: ibrutinib -0.025 | [1] 0.003 | ralimetinib 0.066 | [2] -0.016 | [3] 0.016 | [4] -0.053 | [5] 0.038 | [6] 0.036 | [7] -0.045 | [8] 0.022

MFF isoform 2 (UniProt Q9GZY8)
inactive: ibrutinib 0.007 | [1] -0.044 | ralimetinib -0.03 | [2] -0.033 | [3] -0.052 | [4] 0 | [5] 0.004 | [6] 0.032 | [7] 0.022 | [8] -0.024

METAP1D (UniProt Q6UB28)
inactive: ibrutinib 0.021 | [1] -0.029 | ralimetinib 0.01 | [2] 0.029 | [3] -0.011 | [4] 0.03 | [5] 0.004 | [6] 0.104 | [7] -0.024 | [8] -0.021

MCAM (UniProt P43121)
inactive: ibrutinib 0.013 | [1] -0.013 | ralimetinib 0.021 | [2] -0.046 | [3] -0.016 | [4] -0.001 | [5] -0.01 | [6] 0.024 | [7] 0.004 | [8] -0.039

MED13 (UniProt Q9UHV7)
inactive: ibrutinib -0.033 | [1] -0.021 | ralimetinib 0.036 | [2] -0.045 | [3] -0.003 | [4] 0.049 | [5] 0 | [6] 0.042 | [7] -0.048 | [8] 0.031

MED4 (UniProt Q9NPJ6)
inactive: ibrutinib 0.049 | [1] -0.023 | ralimetinib 0.025 | [2] -0.008 | [3] -0.023 | [4] 0.009 | [5] -0.07 | [6] 0.054 | [7] -0.017 | [8] 0.013

MDH2 (UniProt P40926)
inactive: ibrutinib -0.004 | [1] -0.022 | ralimetinib -0.002 | [2] 0.036 | [3] -0.01 | [4] -0.007 | [5] 0.002 | [6] -0.007 | [7] -0.022 | [8] -0.028

MED24 (UniProt O75448)
inactive: ibrutinib -0.007 | [1] 0.021 | ralimetinib 0.072 | [2] -0.017 | [3] -0.004 | [4] 0.05 | [5] 0.011 | [6] -0.014 | [7] 0.016 | [8] 0.011

MEX3D isoform 3 (UniProt Q86XN8)
inactive: ibrutinib 0.005 | [1] 0.102 | ralimetinib -0.03 | [2] 0.085 | [3] 0.26 | [4] -0.024 | [5] 0.071 | [6] 0.024 | [7] -0.096 | [8] -0.109

METTL5 (UniProt H0YFV5)
inactive: ibrutinib -0.083 | [1] 0.032 | [3] 0.001 | [6] 0.306 | [8] -0.172

MED23 (UniProt Q9ULK4)
inactive: ibrutinib -0.002 | [1] -0.027 | ralimetinib 0.042 | [2] -0.033 | [3] 0 | [4] 0.019 | [5] -0.005 | [6] -0.018 | [7] 0.037 | [8] -0.015

MFSD8 (UniProt Q8NHS3)
inactive: ibrutinib 0.032 | [1] -0.015 | ralimetinib 0.032 | [2] 0.009 | [3] 0.087 | [4] -0.017 | [6] -0.047 | [7] -0.033 | [8] 0.033

MEF2A isoform 2 (UniProt Q02078)
inactive: ibrutinib -0.078 | [1] -0.088 | ralimetinib -0.031 | [2] -0.023 | [3] 0.03 | [4] -0.062 | [6] 0.023 | [7] 0.064 | [8] 0.029

METTL21A (UniProt Q8WXB1)
inactive: ibrutinib 0.006 | [1] -0.106 | ralimetinib 0.021 | [2] -0.032 | [3] 0 | [4] -0.019 | [5] -0.138 | [6] 0 | [7] 0.009 | [8] -0.032

MCM4 (UniProt P33991)
inactive: ibrutinib 0.034 | [1] 0.004 | ralimetinib 0.025 | [2] 0.018 | [3] 0.034 | [4] -0.019 | [5] -0.024 | [6] 0.019 | [7] 0.022 | [8] 0.026

Reprinted at random: two entries already listed, in no set order.
MEF2A isoform 2 (UniProt Q02078)
inactive: ibrutinib -0.078 | [1] -0.088 | ralimetinib -0.031 | [2] -0.023 | [3] 0.03 | [4] -0.062 | [6] 0.023 | [7] 0.064 | [8] 0.029

METTL21A (UniProt Q8WXB1)
inactive: ibrutinib 0.006 | [1] -0.106 | ralimetinib 0.021 | [2] -0.032 | [3] 0 | [4] -0.019 | [5] -0.138 | [6] 0 | [7] 0.009 | [8] -0.032
